Here are results for 42 sequences from article PMC7819943, “Rice protein-binding microarrays: a tool to detect cis-acting elements near promoter regions in rice”.

Some of the results follow.

The target in the experiment is T1, OsSMF1 (Oryza sativa, UniProt Q6ZLB0 1-436).
T1 sequence: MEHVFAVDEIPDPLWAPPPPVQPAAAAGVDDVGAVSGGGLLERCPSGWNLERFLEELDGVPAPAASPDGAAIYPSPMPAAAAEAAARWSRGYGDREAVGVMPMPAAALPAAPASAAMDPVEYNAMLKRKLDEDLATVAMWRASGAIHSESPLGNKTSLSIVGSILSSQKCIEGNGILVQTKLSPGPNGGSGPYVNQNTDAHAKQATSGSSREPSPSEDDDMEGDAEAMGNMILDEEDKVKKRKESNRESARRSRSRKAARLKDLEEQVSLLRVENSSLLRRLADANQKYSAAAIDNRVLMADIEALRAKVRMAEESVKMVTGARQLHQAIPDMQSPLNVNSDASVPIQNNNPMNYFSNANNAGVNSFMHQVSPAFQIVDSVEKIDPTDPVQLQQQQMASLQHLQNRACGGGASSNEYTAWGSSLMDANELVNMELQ
The experiment in a line: protein-binding microarray (RPBM); PBS, 2% BSA, 51.3 ng/ul salmon testes DNA, 50 uM zinc acetate, 200 nM TF, 25 C, 1 h; high values mean tight binding. Particulars: protein: recombinant; tags: N-terminal polyhistidine and DsRed monomer fusion (pET32a); chain copies: 2; label: CyDye5-dUTP incorporated in the synthesized complementary strand; 3' TTTTT single-stranded linker to array surface; dsDNA, one strand shown. In outline: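 The binding signal for each feature is its fluorescence intensity in arbitrary units. An Axon 4000B scanner was used to read a custom Agilent array that had been made double-stranded with Cy5-dUTP primer extension, blocked with 2% BSA, incubated at 25 °C for 1 h with 200 nM protein in PBS, 2% BSA, salmon testes DNA and 50 µM zinc acetate, and washed. The protein was an N-terminal polyhistidine–DsRed transcription factor fusion from E. coli BL21-CodonPlus, purified on Ni–NTA.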
Regarding “TACTTTGTACACGTGGTATGCCACCTGTGATTGAAAACAACGGAGTCACCTAGTGCAG”, the binding signal was 10000 fluorescence intensity (a.u.).

Take “AACCTCGCCATCTTTCTCTGACATGTCGCTCACCGCTGTGCGGAGTCACCTAGTGCAG”: the binding signal was 5460 fluorescence intensity (a.u.). As for “TGTTGCTGCTGAATGCTGCTGACTCCGCACCAACTCCGCGCGGAGTCACCTAGTGCAG”, the binding signal is 12600 fluorescence intensity (a.u.). The figure for “GATCAGCCGCTGAGCTCATCATCGCTCGAGATCACGGCCTCGGAGTCACCTAGTGCAG” is 3870 fluorescence intensity (a.u.); for “GGGTGGCTAACCAGTAACCACGTGTTTACCATGAAACGCCCGGAGTCACCTAGTGCAG” it is 3160 fluorescence intensity (a.u.). The figure for “TGTGTTGTTGTCACACTGTTGCGTGTGTCAGATGCAGGAACGGAGTCACCTAGTGCAG” is 6170 fluorescence intensity (a.u.); for “GGAGATGATAATATAGTACGTTAAGGCACTGCCTCCCGGGCGGAGTCACCTAGTGCAG” it is 17900 fluorescence intensity (a.u.); for “TTTGGAATTTGGAGCAAGCAGTTTCCGATGTTAGAAAATACGGAGTCACCTAGTGCAG” it is 3180 fluorescence intensity (a.u.). The figure for “TCGGGGCCGGGTCGCTGGTGCTCGCCGACGTGCCGCCGGGCGGAGTCACCTAGTGCAG” is 3640 fluorescence intensity (a.u.); for “CTAGAGCCTAGAGGAGTCATCTCCATTTCTTAGCTTCTCTCGGAGTCACCTAGTGCAG” it is 3890 fluorescence intensity (a.u.); for “CAAGTGACTGGTAAGCTGATGTGGATCAGGGAGAATCATTCGGAGTCACCTAGTGCAG” it is 4930 fluorescence intensity (a.u.). Regarding “ACTTCTCAAGTCGTACGGTTCTTGGTCAGCAAGCCAAGATCGGAGTCACCTAGTGCAG”, the binding signal is 3380 fluorescence intensity (a.u.). The figure for “ATAATTTTATATGGGTGCTAGCCACGCAATTGCGCGGGCCCGGAGTCACCTAGTGCAG” is 3190 fluorescence intensity (a.u.); for “AATTTATACTGAAACACGTTATGGAACATGGAATTTCACCCGGAGTCACCTAGTGCAG” it is 3370 fluorescence intensity (a.u.). For “GTGATGGTGAGGAAGTTGATGATGCTGCGCAAGATTCGGACGGAGTCACCTAGTGCAG”, the binding signal is 4150 fluorescence intensity (a.u.). The figure for “GCATGTGACATATATAGTTCTTAATCCACGTGACTTGTGACGGAGTCACCTAGTGCAG” is 3280 fluorescence intensity (a.u.); for “GGTTTATTTGGGTCAACGGAAGTGAATCATGTTTCTTTGACGGAGTCACCTAGTGCAG” it is 3910 fluorescence intensity (a.u.); for “AAAAGGAGGCCCTTTCCTGACAATAGATCCAACCAAATAGCGGAGTCACCTAGTGCAG” it is 3210 fluorescence intensity (a.u.). On to “CTTTGAAGCCCCGGGTTTGTTGCTGATGCATGGCATTTTCCGGAGTCACCTAGTGCAG”, for which the binding signal was 3490 fluorescence intensity (a.u.). The figure for “CACGCCTCCGATCCCGTGGAACCCGACACCGTCACGCACCCGGAGTCACCTAGTGCAG” is 4490 fluorescence intensity (a.u.). The figure for “ACGTGACTTTTATCACTGACACGTGGATCCGACGATGTCTCGGAGTCACCTAGTGCAG” is 17000 fluorescence intensity (a.u.); for “GTTACTAGTTTTGTGCAATCTCCCAATGATGATGGCAGCTCGGAGTCACCTAGTGCAG” it is 3720 fluorescence intensity (a.u.); for “TATTTAGGATGTTGGCGTGGCATCGTGAGTGTTCCACTAGCGGAGTCACCTAGTGCAG” it is 6360 fluorescence intensity (a.u.). As to “GTTCGGTTTCGCGGTCAAGCGCGTGACGTGAGGTCGCCCACGGAGTCACCTAGTGCAG”, the binding signal is 5720 fluorescence intensity (a.u.). Consider “AACGGACGGTACAGATCTCTTTGGCTGACGCGCCCGGATCCGGAGTCACCTAGTGCAG”, for which the binding signal was 35300 fluorescence intensity (a.u.).

Take “CTCCACCACGCGCGCCGCATCCATCTCCGCCAAAATCCACCGGAGTCACCTAGTGCAG”: the binding signal is 3160 fluorescence intensity (a.u.).

Consider “TGGGCCGAATAGGTACGCACGTGGGGAGGGGCGCGCAGGGCGGAGTCACCTAGTGCAG”, for which the binding signal was 3850 fluorescence intensity (a.u.).

Consider “CCTGCTCTTATTTCTCTTCCAGCTCATCACTTCTTCTTGCCGGAGTCACCTAGTGCAG”, for which the binding signal is 11300 fluorescence intensity (a.u.).

For the sequence “TCAAACGCTTATGTTCATGCTGCAATCCTCTGTGGCCTTGCGGAGTCACCTAGTGCAG”, the binding signal was 3350 fluorescence intensity (a.u.). The figure for “TGGGATGATCAAATGACTGCCACACTGTCATGTTCCTCTGCGGAGTCACCTAGTGCAG” is 3610 fluorescence intensity (a.u.); for “ACGAGTGGACCTTTTGCAATCCACGTATATGGAATCCCATCGGAGTCACCTAGTGCAG” it is 7360 fluorescence intensity (a.u.); for “ACGCAAACGCAACGCAGCCGCGCGGGCGCCACCGGGTAGCCGGAGTCACCTAGTGCAG” it is 24500 fluorescence intensity (a.u.). The figure for “TTATCAATCTACATCGTTATAATTTAGTTCCACCGTAATTCGGAGTCACCTAGTGCAG” is 4550 fluorescence intensity (a.u.); for “TTCGACTGATCACTAACCATAAAATGCCTCCTCATGAAGCCGGAGTCACCTAGTGCAG” it is 3320 fluorescence intensity (a.u.); for “AGCTGACGAAAGCACAGCTTGGTCGGTCCACGCTGGATACCGGAGTCACCTAGTGCAG” it is 4630 fluorescence intensity (a.u.).

In the case of “GAACAAACCTTGAAGGTCTGAAGAAAATACCCTGTTCATACGGAGTCACCTAGTGCAG”, the binding signal is 18800 fluorescence intensity (a.u.). The figure for “ACTCCACTTTAGGCTGGCAGAGTAAATTGATTTAGGCATTCGGAGTCACCTAGTGCAG” is 27000 fluorescence intensity (a.u.); for “CGCCAAGTGGCCTCCTCCTCCTCCAACCCATCCAATCCCCCGGAGTCACCTAGTGCAG” it is 3620 fluorescence intensity (a.u.); for “CCCTCTTGTGGTCTCTGAGACTGAGTCACTTGCAATATCTCGGAGTCACCTAGTGCAG” it is 4660 fluorescence intensity (a.u.). The figure for “CACTAGCGGCCGCGCCGCGCGCCCACCGCCACCGCATACCCGGAGTCACCTAGTGCAG” is 3900 fluorescence intensity (a.u.); for “TTGAGTCGGTAGAAGTAATTTGCAACATCTCGGTTGCAAACGGAGTCACCTAGTGCAG” it is 4010 fluorescence intensity (a.u.); for “CGTCCCATCACTAATCTGATAAATCTTGCAGAGATTAACGCGGAGTCACCTAGTGCAG” it is 22000 fluorescence intensity (a.u.).
